At least one compound was matched to its structure with a doubt left.
Molecular target: T1, recombinant guanylate cyclase reporter cell line (Rattus norvegicus, UniProt P19686+P20595)
T1 construct: expressed in transfected cells; host or cells: recombinant reporter cell line
T1 sequence (P19686 1-690): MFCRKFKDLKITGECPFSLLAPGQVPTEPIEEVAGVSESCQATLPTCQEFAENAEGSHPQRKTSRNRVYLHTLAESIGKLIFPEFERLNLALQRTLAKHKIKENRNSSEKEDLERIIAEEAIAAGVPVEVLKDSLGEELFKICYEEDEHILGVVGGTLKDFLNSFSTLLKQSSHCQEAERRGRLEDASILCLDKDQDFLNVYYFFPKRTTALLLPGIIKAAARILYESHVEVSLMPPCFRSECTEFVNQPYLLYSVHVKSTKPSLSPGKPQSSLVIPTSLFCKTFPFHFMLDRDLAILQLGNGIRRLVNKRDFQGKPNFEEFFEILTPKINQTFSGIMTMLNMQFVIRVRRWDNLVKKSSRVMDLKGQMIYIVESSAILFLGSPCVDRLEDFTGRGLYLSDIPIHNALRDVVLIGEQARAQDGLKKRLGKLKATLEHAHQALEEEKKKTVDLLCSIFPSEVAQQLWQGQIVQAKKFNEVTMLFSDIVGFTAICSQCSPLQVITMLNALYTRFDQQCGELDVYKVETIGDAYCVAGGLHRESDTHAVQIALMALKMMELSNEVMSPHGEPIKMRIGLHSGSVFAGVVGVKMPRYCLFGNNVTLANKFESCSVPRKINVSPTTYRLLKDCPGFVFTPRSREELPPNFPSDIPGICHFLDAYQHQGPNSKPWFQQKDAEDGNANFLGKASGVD
T1 sequence (P20595 1-619): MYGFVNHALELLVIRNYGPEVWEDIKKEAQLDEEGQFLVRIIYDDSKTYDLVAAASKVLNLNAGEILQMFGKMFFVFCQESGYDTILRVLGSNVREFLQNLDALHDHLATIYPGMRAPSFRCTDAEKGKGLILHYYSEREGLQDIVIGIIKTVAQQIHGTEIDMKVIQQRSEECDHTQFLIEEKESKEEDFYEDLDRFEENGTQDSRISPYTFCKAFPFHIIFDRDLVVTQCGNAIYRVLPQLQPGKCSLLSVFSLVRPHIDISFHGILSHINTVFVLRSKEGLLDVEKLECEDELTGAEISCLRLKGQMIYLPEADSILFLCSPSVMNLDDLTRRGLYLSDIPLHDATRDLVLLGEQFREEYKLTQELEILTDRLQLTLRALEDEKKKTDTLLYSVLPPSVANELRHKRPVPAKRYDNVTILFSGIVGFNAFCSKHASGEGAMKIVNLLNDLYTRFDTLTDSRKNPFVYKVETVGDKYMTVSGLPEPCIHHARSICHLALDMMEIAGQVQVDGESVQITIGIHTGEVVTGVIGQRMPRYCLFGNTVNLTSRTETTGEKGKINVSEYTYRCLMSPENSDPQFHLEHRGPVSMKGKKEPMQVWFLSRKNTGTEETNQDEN
Experiment: Effect on a recombinant guanylate cyclase reporter cell line
Format: cell-based
Conditions: MEC = minimum effective concentration; in some cases mean values for individual determinations
Experimental: B-2. Effect on a Recombinant Guanylate Cyclase Reporter Cell Line
The cellular effect of the inventive compounds is determined using a recombinant guanylate cyclase reporter cell line, as described in F. Wunder et al., Anal. Biochem. 339, 104-112 (2005).
Representative MEC values (MEC=minimum effective concentration) for the inventive compounds are shown in the table below (in some cases as mean values for individual determinations): […]

For `Cc1cc(OCc2c(F)cccc2F)c2nc(C)c(-c3ccc(C#N)nc3)n2c1` [Example 136, 5-{[(2,6-Difluorobenzyl)oxy]-2,6-dimethylimidazo[1,2-a]pyridin-3-yl}pyridine-2-carbonitrile], the MEC was 0.3 µM.

From patent publication US9776997B2, “3-aryl-substituted imidazo[1,2-A]pyridines and their use” (Bayer Pharma Aktiengesellschaft, priority 2013, dated 2017)
